Results: patent publication US11807873B2, “Conversion of S-lignin compounds to useful intermediates” (Alliance for Sustainable Energy, LLC, priority 2020, dated 2023)
For some of these results: At least one structure is not confirmed: it was looked up by name or label, or the drawing left a doubt. Some of these results come from one statement about several compounds together.

Amino acid sequences for entries named in this document (tags omitted). Chains listed by the source or under a name are the forms on record and can include a tag or linker.
UniProt Q88JX5, other isoform, or with tags, fused parts or gaps: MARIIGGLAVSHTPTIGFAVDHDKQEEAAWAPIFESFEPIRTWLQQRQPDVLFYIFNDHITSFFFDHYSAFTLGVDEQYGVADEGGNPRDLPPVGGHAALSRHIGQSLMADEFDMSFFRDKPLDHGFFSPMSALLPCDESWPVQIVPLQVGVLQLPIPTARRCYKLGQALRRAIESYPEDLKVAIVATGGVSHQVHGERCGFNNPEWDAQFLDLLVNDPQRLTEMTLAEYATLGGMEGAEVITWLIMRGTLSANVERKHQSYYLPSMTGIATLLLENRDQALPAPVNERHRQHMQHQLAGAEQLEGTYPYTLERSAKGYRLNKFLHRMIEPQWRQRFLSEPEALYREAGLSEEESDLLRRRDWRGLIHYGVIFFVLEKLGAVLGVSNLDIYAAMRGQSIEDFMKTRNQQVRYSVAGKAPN

Tests used:
[1] = tested on: CJ486 (P. putida KT2440 fpvA:Ptac:vanAB); assay: Toxicity effects on growth of vanAB overexpression strain (OD600); format: cell-based, Pseudomonas putida KT2440; conditions: M9 minimal media, 20 mM glucose; 5-120 mM tested
[2] = tested on: wild-type P. putida KT2440; assay: Toxicity effects on growth of wild-type strain (OD600); format: cell-based, Pseudomonas putida KT2440; conditions: M9 minimal media, 20 mM glucose; 5-120 mM tested
Protocol: Error bars represent the absolute value of two biological replicates.
Bacterial strains, media, and cultivations: Pseudomonas putida KT2440 (ATCC® 47054) was utilized as the wild-type and base strain for all further engineering. Gene deletion, insertion, or replacements in P. putida KT2440 were performed using the antibiotic/sacB counter-selection method as previously described. Diagnostic colony PCR was performed with MyTaq® HS Red Mix (Bioline, USA) to confirm gene deletion, insertion, or replacement (see Table 3 and Table 8). M9 minimal medium was prepared as 6.78 g/L Na2HPO4, 3 g/L KH2PO4, 0.5 g/L NaCl, 1 g/L NH4Cl, 2 mM MgSO4, 100 μM CaCl2), and 18 μM FeSO4, pH 7.0. […] Sodium formate (Sigma, USA) was used to prepare formate stocks in water. Stocks of syringaldehyde were made in 2% (v/v) DMSO. Glucose at 1 M concentration (Sigma, USA) was prepared in water. All carbon sources were 0.2 μm filtered prior to media addition. KT2440 strains were revived from glycerol stocks in LB medium overnight at 30° C. prior to washing in M9 minimal medium. […] To measure cell growth and quantify metabolites, cultures were sampled by removing 1 mL, measuring OD600 of a 1:10 or 1:100 dilution, centrifuging to pellet the cells, and blanking with the OD600 of the supernatant to account for darkening of some cultures due to oxidation of intermediates. […]

[3] = molecular target: T1, GalA (gallate 3,4-dioxygenase) (Pseudomonas putida, UniProt Q88JX5); assay: GalA inactivation kinetic analyses during turnover; format: biochemical
Text: GalA preparations had 0.5 equivalents of Fe per mol GalA. GalA cleaved GA with 3-fold higher specificity (˜9×10^5 s^−1 M^−1, see Table 3, FIG. 20) than previously reported. The partition ratio for GA was ˜1900 based on 02 consumption for given amount of GalA (see Table 3, Equation 1). […] Because high concentrations of GalA were needed to detect 3MGA-cleavage activity, cell lysates were used to investigate the inactivation of GalA by 3MGA. Importantly, the inactivation of GalA by GA was similar for the purified enzyme in E. coli lysate (j3^app˜3×10^−2 s^−1, Table 3, FIG. 21). The apparent rate constant of inactivation of GalA by 3MGA was less than 50% higher than for GA (see Table 3).
Inactivation kinetic analyses: GalA inactivation assays were performed by monitoring consumption of 02 using OXYG1 as described in Steady-state kinetic analyses. […]
The amount of GalA added to the assay was such that the enzyme was completely inactivated before 10% of either the catecholic substrate or 02 was consumed in the reaction mixture. The partition ratio was calculated using Equation 1 shown above.
The apparent apparent rate constant of inactivation during catalytic turnover in air-saturated buffer, j3^app, was determined by fitting Equation 2 to reaction progress curves where St is the substrate concentration at time t. st=(s0−s∞)e^−j^3^app^t+s∞ Equation 2

[4] = molecular target: T1, GalA (gallate 3,4-dioxygenase); assay: GalA steady-state kinetics, O2 consumption (oxygraph); format: biochemical, P. putida KT2440

Structure (SMILES)	substrate concentration at which growth is permitted [1]	substrate concentration at which growth is permitted [2]	j3^app (apparent rate constant of inactivation during turnover) ([3]; air-saturated 40 mM MOPS, 80 mM NaCl (I = 0.1M, pH 7.0), 30° C)	j3^app, inactivation of GalA ([3]; similar for the purified enzyme in E. coli lysate)	specificity of GalA cleavage [4]
O=C(O)c1cc(O)c(O)c(O)c1 [GA, gallate]	below 50 mM	below 50 mM	2.7 ± 0.2 ×10^−2 s^−1	~0.03 s⁻¹	~900000 s⁻¹ M⁻¹
COc1cc(C=O)cc(OC)c1O [SAL, syringaldehyde]	below 50 mM	below 50 mM			
